Experimental data reported in US20040223972A1 (FUNCTIONAL GENETICS, published 2004).
Results are given in words; binding and its absence hold for the method and conditions named. In cells and extracts the contact can be indirect. Some results given as binding are weak or reduced against the parent protein; the word gives no strength.

How the values were obtained:
[1] = molecular target: Myc tagged TSG101 truncated at position 250 (Homo sapiens (Human)) (UniProt Q99816); experiment: co-immunoprecipitation with anti-Myc antibody from transfected 293T cells
[2] = molecular target: Myc tagged TSG101 truncated at position 300 (Homo sapiens (Human)) (UniProt Q99816); experiment: as above

Ebola VP40 (1-326) (from UniProt Q05128 1-326)
binding [1]: binds | binding [2]: binds
